Experimental data published in the supplement of paper PMC8728848.
Some of the results follow.

Legend:
Test in all cases: glycan array binding signal (z-score within array); higher = stronger binding
Details in all cases: glycan notation: IUPAC condensed, linker removed
[1] = biological target: Neu5Ac(a2-3)Gal(b1-3)[Fuc(a1-4)]GlcNAc(b1-3)Gal(b1-3)[Fuc(a1-4)]GlcNAc
Method in brief: (§1)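 From the Consortium for Functional Glycomics database, 3228 arrays were curated, keeping only those whose protein sequence was available. Binding is given as a within-array Z-score averaged across arrays sharing a protein sequence and across linkers. Negative Z-scores can be read as non-binding.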

[2] = biological target: Neu5Ac(a2-3)Gal(b1-3)[Fuc(a1-4)]GlcNAc(b1-3)Gal(b1-4)[Fuc(a1-3)]GlcNAc
Method in brief: as §1

[3] = biological target: Neu5Ac(a2-3)Gal(b1-3)[GlcNAc(b1-6)]GalNAc
Method in brief: as §1

[4] = biological target: Neu5Ac(a2-3)Gal(b1-3)[Neu5Ac(a2-6)]GalNAc
Method in brief: as §1

[5] = biological target: Neu5Ac(a2-3)Gal(b1-3)[Neu5Ac(a2-6)]GlcNAc(b1-3)[Fuc(a1-3)[Gal(b1-4)]GlcNAc(b1-6)]Gal(b1-4)Glc
Method in brief: as §1

[6] = biological target: Neu5Ac(a2-3)Gal(b1-3)]Neu5Ac(a2-3)Gal(b1-4)]GlcNAc
Method in brief: as §1

Neu5Ac(a2-3)Gal(b1-4)Glc = biological target: Neu5Ac(a2-3)Gal(b1-4)Glc
Method in brief: as §1

[7] = biological target: Neu5Ac(a2-3)Gal(b1-4)GlcNAc
Method in brief: as §1

[8] = biological target: Neu5Ac(a2-3)Gal(b1-4)GlcNAc(b1-2)Man
Method in brief: as §1

[9] = biological target: Neu5Ac(a2-3)Gal(b1-4)GlcNAc(b1-2)Man(a1-3)[GlcNAc(b1-4)][Neu5Ac(a2-3)Gal(b1-4)GlcNAc(b1-2)Man(a1-6)]Man(b1-4)GlcNAc(b1-4)GlcNAc
Method in brief: as §1

[10] = biological target: Neu5Ac(a2-3)Gal(b1-4)GlcNAc(b1-2)Man(a1-3)[Neu5Ac(a2-3)Gal(b1-4)GlcNAc(b1-2)Man(a1-6)]Man(b1-4)GlcNAc(b1-4)GlcNAc
Method in brief: as §1

[11] = biological target: Neu5Ac(a2-3)Gal(b1-4)GlcNAc(b1-2)Man(a1-3)[Neu5Ac(a2-3)Gal(b1-4)GlcNAc(b1-2)Man(a1-6)]Man(b1-4)GlcNAc(b1-4)[Fuc(a1-6)]GlcNAc
Method in brief: as §1

[12] = biological target: Neu5Ac(a2-3)Gal(b1-4)GlcNAc(b1-2)Man(a1-3)[Neu5Ac(a2-6)Gal(b1-4)GlcNAc(b1-2)Man(a1-6)]Man(b1-4)GlcNAc(b1-4)GlcNAc
Method in brief: as §1

[13] = biological target: Neu5Ac(a2-3)Gal(b1-4)GlcNAc(b1-2)[Neu5Ac(a2-3)Gal(b1-4)GlcNAc(b1-4)]Man(a1-3)[GlcNAc(b1-4)][Neu5Ac(a2-3)Gal(b1-4)GlcNAc(b1-2)[Neu5Ac(a2-3)Gal(b1-4)GlcNAc(b1-6)]Man(a1-6)]Man(b1-4)GlcNAc(b1-4)GlcNAc
Method in brief: as §1

[14] = biological target: Neu5Ac(a2-3)Gal(b1-4)GlcNAc(b1-2)[Neu5Ac(a2-3)Gal(b1-4)GlcNAc(b1-4)]Man(a1-3)[GlcNAc(b1-4)][Neu5Ac(a2-3)Gal(b1-4)GlcNAc(b1-4)Man(a1-6)]Man(b1-4)GlcNAc(b1-4)GlcNAc
Method in brief: as §1

[15] = biological target: Neu5Ac(a2-3)Gal(b1-4)GlcNAc(b1-2)[Neu5Ac(a2-3)Gal(b1-4)GlcNAc(b1-6)]Man(a1-6)[Neu5Ac(a2-3)Gal(b1-4)GlcNAc(b1-2)Man(a1-3)]Man(b1-4)GlcNAc(b1-4)GlcNAc
Method in brief: as §1

[16] = biological target: Neu5Ac(a2-3)Gal(b1-4)GlcNAc(b1-2)[Neu5Ac(a2-3)Gal(b1-4)GlcNAc(b1-6)]Man(a1-6)[Neu5Ac(a2-3)Gal(b1-4)GlcNAc(b1-2)Man(a1-3)][GlcNAc(b1-4)]Man(b1-4)GlcNAc(b1-4)GlcNAc
Method in brief: as §1

[17] = biological target: Neu5Ac(a2-3)Gal(b1-4)GlcNAc(b1-3)Gal
Method in brief: as §1

[18] = biological target: Neu5Ac(a2-3)Gal(b1-4)GlcNAc(b1-3)Gal(b1-3)GlcNAc
Method in brief: as §1

[19] = biological target: Neu5Ac(a2-3)Gal(b1-4)GlcNAc(b1-3)Gal(b1-4)GlcNAc(b1-2)Man(a1-3)[Neu5Ac(a2-3)Gal(b1-4)GlcNAc(b1-3)Gal(b1-4)GlcNAc(b1-2)Man(a1-6)]Man(b1-4)GlcNAc(b1-4)GlcNAc
Method in brief: as §1

[20] = biological target: Neu5Ac(a2-3)Gal(b1-4)GlcNAc(b1-3)Gal(b1-4)GlcNAc(b1-3)Gal(b1-4)GlcNAc
Method in brief: as §1

[21] = biological target: Neu5Ac(a2-3)Gal(b1-4)GlcNAc(b1-3)Gal(b1-4)GlcNAc(b1-3)Gal(b1-4)GlcNAc(b1-2)Man(a1-3)[Neu5Ac(a2-3)Gal(b1-4)GlcNAc(b1-3)Gal(b1-4)GlcNAc(b1-3)Gal(b1-4)GlcNAc(b1-2)Man(a1-6)]GalNAc
Method in brief: as §1

[22] = biological target: Neu5Ac(a2-3)Gal(b1-4)GlcNAc(b1-3)Gal(b1-4)GlcNAc(b1-3)GalNAc
Method in brief: as §1

[23] = biological target: Neu5Ac(a2-3)Gal(b1-4)GlcNAc(b1-3)Gal(b1-4)GlcNAc(b1-3)[Neu5Ac(a2-3)Gal(b1-4)GlcNAc(b1-3)Gal(b1-4)GlcNAc(b1-6)]GalNAc
Method in brief: as §1

[24] = biological target: Neu5Ac(a2-3)Gal(b1-4)GlcNAc(b1-3)Gal(b1-4)[Fuc(a1-3)]GlcNAc
Method in brief: as §1

[25] = biological target: Neu5Ac(a2-3)Gal(b1-4)GlcNAc(b1-3)GalNAc
Method in brief: as §1

[26] = biological target: Neu5Ac(a2-3)Gal(b1-4)GlcNAc(b1-3)[Neu5Ac(a2-3)Gal(b1-4)GlcNAc(b1-6)]GalNAc
Method in brief: as §1

[27] = biological target: Neu5Ac(a2-3)Gal(b1-4)GlcNAc(b1-6)GalNAc
Method in brief: as §1

[28] = biological target: Neu5Ac(a2-3)Gal(b1-4)GlcNAc(b1-6)[Gal(b1-3)]GalNAc
Method in brief: as §1

[29] = biological target: Neu5Ac(a2-3)Gal(b1-4)GlcNAc(b1-6)[Neu5Ac(a2-3)Gal(b1-3)]GalNAc
Method in brief: as §1

[30] = biological target: Neu5Ac(a2-3)Gal(b1-4)GlcNAc6S
Method in brief: as §1

[31] = biological target: Neu5Ac(a2-3)Gal(b1-4)[Fuc(a1-3)]GlcNAc
Method in brief: as §1

[32] = biological target: Neu5Ac(a2-3)Gal(b1-4)[Fuc(a1-3)]GlcNAc(b1-2)Man
Method in brief: as §1

[33] = biological target: Neu5Ac(a2-3)Gal(b1-4)[Fuc(a1-3)]GlcNAc(b1-3)Gal
Method in brief: as §1

[34] = biological target: Neu5Ac(a2-3)Gal(b1-4)[Fuc(a1-3)]GlcNAc(b1-3)Gal(b1-4)GlcNAc
Method in brief: as §1

[35] = biological target: Neu5Ac(a2-3)Gal(b1-4)[Fuc(a1-3)]GlcNAc(b1-3)Gal(b1-4)[Fuc(a1-3)]GlcNAc(b1-3)Gal(b1-4)[Fuc(a1-3)]GlcNAc
Method in brief: as §1

[36] = biological target: Neu5Ac(a2-3)Gal(b1-4)[Fuc(a1-3)]GlcNAc(b1-3)GalNAc
Method in brief: as §1

[37] = biological target: Neu5Ac(a2-3)Gal(b1-4)[Fuc(a1-3)]GlcNAc(b1-6)[Gal(b1-3)]GalNAc
Method in brief: as §1

B1: PX14351B-bth-512-36-512 (Bacteroides thetaiotaomicron) (protein)
chain: ASETQQWKTLEDTRSALMGVYGLTRAALADNNTHWICGDLRKGDFTVYKRSDLQAVSDNELNKPYDLLKKVSNWRRFYAVINAASVFMEKAPRTVELDRSYSEQNLKYDIAQVRALRAFAYFYMVRIWGDVPLVTYSYDNGTFPSMPRTDAQTVLSYAKAELLTAIEDLPYQYGTQTNLYYGSYGAQWQGKLFNKLSAYSVLAHICAWQGNYAEAETYSAFIIDHASEINAKYTSIADLTSETGLFYSNASVKGSRILGFNFAHNDNEATQSGHLEQLTLAYPLVQKSYPEIYISKDSLFSIFTNFDDLRFGIIDTIKYSSYYVQNLNEETPVFSKIKIIQDGSAKDNDFGVFGSSIVFTRLEDITLLRAEALCALNRSTEAVSYLNMIRTNRGLREVSFKKDFGNNRESLIAEIFEERRRELMGEGWRWYDLVRRQKLMKDNEAFLRLISSGGIYWPVSEDIITANSQIEQNEFWK
[1]
  glycan array binding signal (z-score): -0.274
[2]
  glycan array binding signal (z-score): -0.172
[3]
  glycan array binding signal (z-score): -0.16
[4]
  glycan array binding signal (z-score): -0.263
[5]
  glycan array binding signal (z-score): -0.369
[6]
  glycan array binding signal (z-score): -0.36
Neu5Ac(a2-3)Gal(b1-4)Glc
  glycan array binding signal (z-score): -0.065
[7]
  glycan array binding signal (z-score): -0.312
[8]
  glycan array binding signal (z-score): -0.275
[9]
  glycan array binding signal (z-score): -0.214
[10]
  glycan array binding signal (z-score): 0.344
[11]
  glycan array binding signal (z-score): -0.243
[12]
  glycan array binding signal (z-score): -0.254
[13]
  glycan array binding signal (z-score): -0.24
[14]
  glycan array binding signal (z-score): -0.26
[15]
  glycan array binding signal (z-score): -0.204
[16]
  glycan array binding signal (z-score): -0.341
[17]
  glycan array binding signal (z-score): -0.287
[18]
  glycan array binding signal (z-score): -0.352
[19]
  glycan array binding signal (z-score): -0.19
[20]
  glycan array binding signal (z-score): 0.041
[21]
  glycan array binding signal (z-score): -0.12
[22]
  glycan array binding signal (z-score): 0.553
[23]
  glycan array binding signal (z-score): -0.084
[24]
  glycan array binding signal (z-score): -0.061
[25]
  glycan array binding signal (z-score): -0.19
[26]
  glycan array binding signal (z-score): -0.355
[27]
  glycan array binding signal (z-score): -0.12
[28]
  glycan array binding signal (z-score): -0.023
[29]
  glycan array binding signal (z-score): -0.116
[30]
  glycan array binding signal (z-score): -0.307
[31]
  glycan array binding signal (z-score): -0.359
[32]
  glycan array binding signal (z-score): -0.201
[33]
  glycan array binding signal (z-score): -0.219
[34]
  glycan array binding signal (z-score): -0.142
[35]
  glycan array binding signal (z-score): -0.084
[36]
  glycan array binding signal (z-score): 0.129
[37]
  glycan array binding signal (z-score): 0.021
